Laboratory results as given in PMC8390553.
These are yes or no findings as the source states them, for the method shown. Binding seen in cells or lysates may run through a third protein. Some binding calls cover weakened binding; strength is not graded here.

Amino acid sequences for entries named in this document (tags omitted). A change or cut given only in a name is not applied to a line headed by its entry.
UniProt Q2NKJ3: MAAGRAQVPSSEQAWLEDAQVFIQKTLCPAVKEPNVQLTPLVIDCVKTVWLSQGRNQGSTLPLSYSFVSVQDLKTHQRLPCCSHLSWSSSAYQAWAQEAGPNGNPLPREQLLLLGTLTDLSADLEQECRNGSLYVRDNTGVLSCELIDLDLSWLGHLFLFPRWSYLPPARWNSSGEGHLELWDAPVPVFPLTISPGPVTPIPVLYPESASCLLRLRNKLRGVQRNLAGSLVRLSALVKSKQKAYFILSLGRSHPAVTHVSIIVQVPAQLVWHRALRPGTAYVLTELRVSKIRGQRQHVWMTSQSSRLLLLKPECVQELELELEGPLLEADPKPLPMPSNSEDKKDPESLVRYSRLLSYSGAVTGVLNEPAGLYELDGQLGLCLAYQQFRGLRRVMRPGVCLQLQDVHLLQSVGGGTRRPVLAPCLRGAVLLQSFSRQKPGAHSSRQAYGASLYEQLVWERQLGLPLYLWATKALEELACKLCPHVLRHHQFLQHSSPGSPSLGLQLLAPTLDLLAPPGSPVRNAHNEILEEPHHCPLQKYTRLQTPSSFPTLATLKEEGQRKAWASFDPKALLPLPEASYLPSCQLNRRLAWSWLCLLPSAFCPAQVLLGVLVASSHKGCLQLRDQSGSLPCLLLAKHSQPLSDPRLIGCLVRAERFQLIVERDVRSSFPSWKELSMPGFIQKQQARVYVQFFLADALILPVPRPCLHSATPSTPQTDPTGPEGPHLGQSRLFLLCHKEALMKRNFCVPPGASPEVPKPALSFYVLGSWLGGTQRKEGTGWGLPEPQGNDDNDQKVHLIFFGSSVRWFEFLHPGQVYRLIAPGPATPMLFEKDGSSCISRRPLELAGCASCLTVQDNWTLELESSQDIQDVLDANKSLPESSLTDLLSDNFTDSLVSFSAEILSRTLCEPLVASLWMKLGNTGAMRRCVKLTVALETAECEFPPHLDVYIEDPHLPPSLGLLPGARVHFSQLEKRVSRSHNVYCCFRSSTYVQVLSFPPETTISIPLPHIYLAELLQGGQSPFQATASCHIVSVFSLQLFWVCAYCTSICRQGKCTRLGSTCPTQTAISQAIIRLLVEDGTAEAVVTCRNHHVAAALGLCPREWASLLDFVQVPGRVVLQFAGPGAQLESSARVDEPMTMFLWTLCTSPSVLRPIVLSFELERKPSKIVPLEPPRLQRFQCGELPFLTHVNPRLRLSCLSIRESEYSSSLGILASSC
UniProt Q9H668: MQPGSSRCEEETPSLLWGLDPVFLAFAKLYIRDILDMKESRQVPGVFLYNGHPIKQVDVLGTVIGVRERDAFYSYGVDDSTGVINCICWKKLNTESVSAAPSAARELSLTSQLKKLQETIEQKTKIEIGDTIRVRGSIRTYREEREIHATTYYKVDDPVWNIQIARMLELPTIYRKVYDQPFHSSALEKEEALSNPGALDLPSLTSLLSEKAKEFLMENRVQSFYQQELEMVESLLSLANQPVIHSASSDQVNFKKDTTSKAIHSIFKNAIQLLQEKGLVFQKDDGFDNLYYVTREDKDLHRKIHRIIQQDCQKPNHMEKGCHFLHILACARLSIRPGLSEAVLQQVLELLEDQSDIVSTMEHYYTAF
UniProt Q86WV5: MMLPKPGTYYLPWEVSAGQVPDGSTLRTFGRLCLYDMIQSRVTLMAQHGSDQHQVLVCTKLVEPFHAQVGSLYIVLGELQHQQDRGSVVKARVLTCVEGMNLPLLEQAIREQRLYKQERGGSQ

Biological target: CTC1-STN1-TEN1 (CST) complex, epitope-tagged, overexpressed (human) (UniProt Q2NKJ3+Q9H668+Q86WV5)
Assay: co-IP; IP of Flag-tagged proteins from nuclease-treated lysates of HEK293T cells expressing Flag-CTC1, Flag-STN1 or the full CST complex; blots for endogenous SMC3 and SMC1A

B1: SMC1A, endogenous (HEK293T) (protein, UniProt Q14683 1-1233)
chain: MGFLKLIEIENFKSYKGRQIIGPFQRFTAIIGPNGSGKSNLMDAISFVLGEKTSNLRVKTLRDLIHGAPVGKPAANRAFVSMVYSEEGAEDRTFARVIVGGSSEYKINNKVVQLHEYSEELEKLGILIKARNFLVFQGAVESIAMKNPKERTALFEEISRSGELAQEYDKRKKEMVKAEEDTQFNYHRKKNIAAERKEAKQEKEEADRYQRLKDEVVRAQVQLQLFKLYHNEVEIEKLNKELASKNKEIEKDKKRMDKVEDELKEKKKELGKMMREQQQIEKEIKEKDSELNQKRPQYIKAKENTSHKIKKLEAAKKSLQNAQKHYKKRKGDMDELEKEMLSVEKARQEFEERMEEESQSQGRDLTLEENQVKKYHRLKEEASKRAATLAQELEKFNRDQKADQDRLDLEERKKVETEAKIKQKLREIEENQKRIEKLEEYITTSKQSLEEQKKLEGELTEEVEMAKRRIDEINKELNQVMEQLGDARIDRQESSRQQRKAEIMESIKRLYPGSVYGRLIDLCQPTQKKYQIAVTKVLGKNMDAIIVDSEKTGRDCIQYIKEQRGEPETFLPLDYLEVKPTDEKLRELKGAKLVIDVIRYEPPHIKKALQYACGNALVCDNVEDARRIAFGGHQRHKTVALDGTLFQKSGVISGGASDLKAKARRWDEKAVDKLKEKKERLTEELKEQMKAKRKEAELRQVQSQAHGLQMRLKYSQSDLEQTKTRHLALNLQEKSKLESELANFGPRINDIKRIIQSREREMKDLKEKMNQVEDEVFEEFCREIGVRNIREFEEEKVKRQNEIAKKRLEFENQKTRLGIQLDFEKNQLKEDQDKVHMWEQTVKKDENEIEKLKKEEQRHMKIIDETMAQLQDLKNQHLAKKSEVNDKNHEMEEIRKKLGGANKEMTHLQKEVTAIETKLEQKRSDRHNLLQACKMQDIKLPLSKGTMDDISQEEGSSQGEDSVSGSQRISSIYAREALIEIDYGDLCEDLKDAQAEEEIKQEMNTLQQKLNEQQSVLQRIAAPNMKAMEKLESVRDKFQETSDEFEAARKRAKKAKQAFEQIKKERFDRFNACFESVATNIDEIYKALSRNSSAQAFLGPENPEEPYLDGINYNCVAPGKRFRPMDNLSGGEKTVAALALLFAIHSYKPAPFFVLDEIDAALDNTNIGKVANYIKEQSTCNFQAIVISLKEEFYTKAESLIGVYPEQGDCVISKVLTFDLTKYPDANPNPNEQ
  binding: binds
